Laboratory results from PubChem BioAssay AID504834 (National Center for Advancing Translational Sciences (NCATS), 2011).
Out of some 320,000 compounds screened, about 22,000 (6.9%) were called active. Inconclusive results, whose numbers are uncertain, are shown with a selection of clear calls. Calls come from the whole dose curve; as a rule, active = well fitted inhibition curve with a large enough effect; inconclusive = small, poorly fitted or top-dose-only effect, or another doubt; inactive = no such curve, though single readings can be large or run the other way. Potencies beside an inconclusive call are fits to weak or partial responses and may not hold up.

assay: Primary qHTS for delayed death inhibitors of the malarial parasite plastid, 96 hour incubation; conditions: P. falciparum luciferase reporter growth; series mostly up to 28.7 µM; activity change, negative = inhibition: at the top concentration
Method in brief: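 Readout is luminescence from an integrated firefly luciferase in P. falciparum. Red cells, 2% hematocrit and 0.05% parasitemia final, were cultured with compound through two parasite generations (96 hours) at 37 C, 5% CO2.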
% is set by controls: 0 for no effect and ±100 for the full control effect; potency is the fitted concentration of half-maximal effect.

Compound	activity change, negative = inhibition	Potency
Cc1ccc(S(=O)(=O)N(C)c2ccc(OC(=O)c3cccs3)cc2)cc1C	inactive: -5.6%	–
CCCN(CCC)C(=O)CSc1nc2ccccc2c(=O)n1CC1COc2ccccc2O1 (centres undefined)	inactive: 96.1%	–
Cn1cc(CC(=O)N2CCN(c3ccc(Cl)cc3)CC2)c2ccccc21	–	active: 11.7 µM
Cc1ccc(NCc2ccco2)cc1C	–	inconclusive: 1.17 µM [inhibitor, partial curve, poor fit]
Nc1nc2n(n1)C(=O)CC(c1ccccc1)N2 (centres undefined)	–	active: 9.28 µM
COc1cc(/C=C2\SC(=O)N(CCNC(=O)c3sc4cc(F)ccc4c3Cl)C2=O)cc(OC)c1OC	–	inconclusive: 1.85 µM [inhibitor, partial curve, poor fit]
CCn1c(/C=C/c2ccc(O)cc2)nc2ccccc2c1=O	–	inconclusive: 18.5 µM [inhibitor, single point]
CC1(C)Cc2cccc(Oc3ccc(S(=O)(=O)N4CCCC4)cn3)c2O1	–	inconclusive: 11.7 µM [inhibitor, partial curve, poor fit]
CCc1ccccc1NC(=O)/C(C#N)=C/c1ccc(Sc2ccccc2)o1	–	inconclusive: 18.5 µM [inhibitor, single point]
O=C(c1cn(Cc2ccccc2)nc1-c1ccccc1)N1CCN(c2ccccn2)CC1	–	inconclusive: 18.5 µM [inhibitor, single point]
C=CCN1C(=O)NC(=O)/C(=C/c2ccc(OC)c(CSc3ccccn3)c2)C1=O	–	inconclusive: 0.0415 µM [inhibitor, full curve, poor fit]
CCc1noc(C)c1C(=O)N1CCCSC1=Nc1ccccc1Cl	–	inconclusive: 10.4 µM [inhibitor, partial curve, poor fit]
Cc1nn2c(=O)cc(CSCC(=O)Nc3ccccc3Cl)nc2s1	–	active: 11.7 µM
Cc1cc(C)cc(N2CN=C3SCC(=O)N3C2)c1	–	inconclusive: 10.4 µM [inhibitor, single point]
COc1ccc(Cl)cc1Nc1nnc(-c2ccncc2)s1	inactive: 30%	–
O=S(=O)(c1ccc(Br)cc1)c1nc(-c2ccccc2)oc1NCc1cccnc1	–	inconclusive: 18.5 µM [inhibitor, single point]
Cc1n[nH]c(C)c1S(=O)(=O)N1CCCCCC1	–	inconclusive: 0.657 µM [inhibitor, full curve, poor fit]
CCn1cc(C(=O)NCC(OC)OC)c(=O)c2cc(S(=O)(=O)N3CCCC3)ccc21	–	inconclusive: 5.86 µM [inhibitor, partial curve]
Cc1cccc(OCCSCc2nc3ccccc3[nH]2)c1	–	inconclusive: 1.65 µM [inhibitor, single point]
CC(=O)Oc1ccc(NC(=O)CSc2ccccc2)cc1	–	inconclusive: 18.5 µM [inhibitor, single point]
CC1CCCC(NC(=O)COC(=O)c2ccc(S(=O)(=O)N3CCOCC3)cc2)C1C (centres undefined)	–	inconclusive: 10.4 µM [inhibitor, partial curve]
CCOc1ccc2nc(N(CCCN(C)C)C(=O)c3ccc(C(=O)c4ccccc4)cc3)sc2c1	–	inconclusive: 11.7 µM [inhibitor, single point]
COc1cccc([C@H](O)Cn2cc(-c3ccc(CON=C(C)C)cc3)nn2)c1	–	inconclusive: 10.4 µM [inhibitor, single point]

Part of the list above in order of count of non-hydrogen atoms, descending:
Compound	activity change, negative = inhibition	Potency
COc1cc(/C=C2\SC(=O)N(CCNC(=O)c3sc4cc(F)ccc4c3Cl)C2=O)cc(OC)c1OC	–	inconclusive: 1.85 µM [inhibitor, partial curve, poor fit]
Cc1ccc(S(=O)(=O)N(C)c2ccc(OC(=O)c3cccs3)cc2)cc1C	inactive: -5.6%	–
CCc1noc(C)c1C(=O)N1CCCSC1=Nc1ccccc1Cl	–	inconclusive: 10.4 µM [inhibitor, partial curve, poor fit]
COc1ccc(Cl)cc1Nc1nnc(-c2ccncc2)s1	inactive: 30%	–

Remaining list, next part:

Compound	activity change, negative = inhibition	Potency
O=S(=O)(c1ccc(Br)cc1)N1CCN(c2cc(-c3ccccc3)nc3ncnn23)CC1	inactive: -9.68%	–
CC(C(=O)Nc1ccc(Br)cc1C(=O)c1ccccc1)N1CCOCC1 (centres undefined)	–	inconclusive: 11.7 µM [inhibitor, single point]
CCC(C)(CCNC(=O)Cc1ccccc1)c1ccccc1OC (centres undefined)	–	inconclusive: 18.5 µM [inhibitor, single point]
CC(C)Cn1nc(C(=O)NCc2ccccc2CN2CCCC2)c2ccccc2c1=O	–	inconclusive: 10.4 µM [inhibitor, single point]
CC1(C)CNc2cc([N+](=O)[O-])ccc2S1	inactive: -29.3%	–
O=C(COC(=O)c1cccs1)NCc1ccco1	–	inconclusive: 13.1 µM [inhibitor, partial curve, poor fit]
O=C(CCC1CCCCC1)Nc1c2c(nn1-c1ccc(F)cc1)CS(=O)(=O)C2	–	inconclusive: 0.928 µM [inhibitor, full curve]
CC(NC(=O)Cc1ccc(Br)cc1)c1ccccc1 (centres undefined)	–	inconclusive: 3.29 µM [inhibitor, partial curve, poor fit]
COc1ccc(NC(=O)Cc2c(Cl)cccc2Cl)cn1	inactive: -16%	–
N#CCCn1cc(C(N)=O)c(-c2cccs2)n1	inactive: -0.886%	–
C[C@@H](C(=O)Nc1cccnc1)n1c(=O)[nH]c2ccccc2c1=O	–	inconclusive: 18.5 µM [inhibitor, single point]
CC1CCC(NC(=O)Cn2c(=O)oc3ccccc32)CC1 (centres undefined)	–	inconclusive: 13.1 µM [inhibitor, single point]
OCCNc1nc2ccccc2[nH]1	–	inconclusive: 4.15 µM [inhibitor, single point]
Cc1ccc(C(=O)NCc2nnc(SCC(=O)Nc3ccccc3)n2C)cc1	inactive: 3.28%	–
CCN(CC)c1ccc(/C=N/Nc2nc(C)cc(C)n2)cc1	–	inconclusive: 16.5 µM [inhibitor, single point]
Cc1cc(Cl)ccc1OCC(=O)Nc1cccnc1	inactive: 7.87%	–
O=C(CSc1nnc(-c2ccccc2)n1Cc1ccco1)NCc1ccc2c(c1)OCO2	–	inconclusive: 18.5 µM [inhibitor, single point]
Cc1cc(C)c(S(=O)(=O)c2cccc(Cl)c2)c(Cl)n1	–	inconclusive: 0.828 µM [inhibitor, full curve, poor fit]
COc1c(C)cc(C(=O)C2CCCN(S(=O)(=O)N(C)C)C2)cc1C (centres undefined)	–	active: 2.94 µM
O=c1c2c(-c3ccccc3)csc2nc2c3ccccc3c(NCCN3CCOCC3)nn12	–	active: 1.17 µM
O=C(COc1ccc(Br)cc1Cl)NC(=O)NC1CCCC1	inactive: 159%	–
CCOc1ccc(-c2cccc(NC(=O)c3cccs3)c2)nn1	–	active: 3.7 µM
C=CCN1C(=O)C(Cc2cccc(Cl)c2)S/C1=N/N=C/c1ccco1 (centres undefined)	–	inconclusive: 18.5 µM [inhibitor, single point]

Compound	activity change, negative = inhibition	Potency
CCOc1ccccc1NC(=O)CCS(=O)(=O)c1cccc2nsnc12	–	inconclusive: 10.4 µM [inhibitor, single point]
CCOc1cccc(-c2nn3c(-c4cc(C)[nH]n4)nnc3s2)c1	–	active: 1.65 µM
COc1cccc(/C=C/C(=O)Nc2ccc3nc4n(c(=O)c3c2)CCCC4)c1OC	–	inconclusive: 0.657 µM [inhibitor, full curve, poor fit]
NC(=O)c1cccc(NC(=O)Nc2ccc(Cl)cc2)c1	–	inconclusive: 1.65 µM [inhibitor, partial curve, poor fit]
Cc1nn(-c2ncc(C(F)(F)F)cc2Cl)c(=O)n1-c1cccc(F)c1	inactive: -22.4%	–
COc1ccc(OC)c(S(=O)(=O)N2CCC(C(=O)N3CCOCC3)CC2)c1	–	inconclusive: 10.4 µM [inhibitor, single point]
Cc1ccc(C(C(=O)NC2CCCC2)N(Cc2ccc(F)cc2)C(=O)c2csnn2)o1 (centres undefined)	–	inconclusive: 11.7 µM [inhibitor, single point]
COc1ccc(-n2c(=O)n(Cc3ccccc3)c(=O)c3[nH]cnc32)cc1	–	inconclusive: 10.4 µM [inhibitor, partial curve]
O=[N+]([O-])c1ccc(-n2cnc3ccccc32)c([N+](=O)[O-])c1	inactive: 37.9%	–
O=C(Cn1c(NCCCCl)nc2ccccc21)c1ccccc1	–	inconclusive: 16.5 µM [inhibitor, single point]
O=S(=O)(c1ccc(Cl)nc1)N(Cc1ccccc1)Cc1ccccc1	–	inconclusive: 6.57 µM [inhibitor, partial curve, poor fit]
COC(=O)c1ccccc1S(=O)(=O)N1CCC(C(=O)NC2CCCCC2C)CC1 (centres undefined)	–	inconclusive: 6.57 µM [inhibitor, partial curve, poor fit]
COc1ccc(C(=O)N/C(=C/c2cccs2)c2nc3ccccc3[nH]2)cc1OC	–	active: 4.65 µM
O=C(Nn1c(O)c(C=C2N=c3ccccc3=N2)sc1=S)c1cccc(Cl)c1	–	inconclusive: 10.4 µM [inhibitor, single point]
CC(C)c1ccc(C(C(=O)NC2CCCCC2)N(C(=O)c2ccccn2)c2cccnc2)cc1 (centres undefined)	–	inconclusive: 4.65 µM [inhibitor, partial curve, poor fit]
Cc1cc(S(=O)(=O)NCc2ccccn2)c(Cl)cc1Cl	–	inconclusive: 18.5 µM [inhibitor, single point]
CC(C)NC(=O)N1CC(c2ccccc2)C(c2ccc(Cl)cc2)=N1 (centres undefined)	–	inconclusive: 1.17 µM [inhibitor, partial curve]
COc1cc(OC)cc(C(=O)NC2CCCN(Cc3ccc(Cl)cc3)C2)c1 (centres undefined)	–	inconclusive: 10.4 µM [inhibitor, single point]
COc1ccccc1CN(C)C(C)C(=O)Nc1cccc(C(C)=O)c1 (centres undefined)	inactive: 19.5%	–
COc1cc(C(=O)Nc2ccc(O)cc2C(=O)O)ccc1OC(C)=O	inactive: 3.94%	–
O=C1CC[C@@H](CN(Cc2ccccn2)Cc2nc(Cc3cccc(C(F)(F)F)c3)no2)N1	inactive: 25.7%	–
COc1ccc(OC)c(C(Nc2ccccc2)P(=O)(OC(C)C)OC(C)C)c1 (centres undefined)	–	inconclusive: 18.5 µM [inhibitor, single point]
CN(c1ccccc1C(=O)Nc1cccc([N+](=O)[O-])c1)S(C)(=O)=O	–	inconclusive: 18.5 µM [inhibitor, single point]
